Taken from: PubChem BioAssay AID504793 (Drosophila RNAi Screening Center, 2011)

- Assay: 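Genes required for cells to halt at G2/M after double-strand DNA breaks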 (primary screen)
- Cells: Drosophila S2R+ cells
- Knock-down reagent: long dsRNA against Drosophila genes, about 0.25 µg dsRNA per well
- Duration: 4 days of dsRNA, then 4 hours of drug before read-out
- Conditions: doxorubicin 0.5 µM for 4 hours to cause double-strand breaks, in cells also given a low, harmless dose of dsRNA against nbs to sensitise the assay
- Measured: 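Per-well count of mitotic cells stained for phospho-histone H3 after doxorubicin exposure, used as mitotic index; counts are raw and not normalised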
- Reading the numbers: mitotic cells: higher = more cells in mitosis, weaker G2 arrest
- Call rule: 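a call needs confirmation in secondary tests, with other dsRNAs and a check of mitotic timing without damage, not just a high primary count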
- Calls: active = confirmed in follow-up tests; inactive = not confirmed
The screen tested about 23,000 reagents; this is a random part of those that have a named target and a result. Over the whole deposit, 62 (0.27%) were called active. 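Calls come from follow-up tests whose scores are not deposited, so confirmed genes may have low counts here; counts are not normalised per plate.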 Raw values vary from plate to plate and are shown uncorrected. The numbers tell different reagents against one gene apart. A plus sign joins genes that one reagent is predicted to hit. Reagent sequences are not shown.

| gene | reagent | mitotic cells, replicate 1 | Call |
| --- | --- | --- | --- |
| ppk6 | 1 | 4 | inactive |
| ppk6 | 2 | 6 | inactive |
| CG7912 | 1 | 17 | inactive |
| CG17974 | 1 | 7 | inactive |
| CG13947 | 1 | – | inactive |
| CG13947 | 2 | 6 | inactive |
| CG33096 | 1 | 8 | inactive |
| CG33096 | 2 | 3 | inactive |
| CG14929 + CG4970 | 1 | 7 | inactive |
| CG14929 + CG4970 | 2 | 4 | inactive |
| CG10494 | 1 | 6 | inactive |
| CG10494 | 2 | 13 | inactive |
| Recs1 | 1 | 2 | inactive |
| CG3713 | 1 | 12 | inactive |
| CG5111 | 1 | 12 | inactive |
| Ptp99A | 1 | 5 | inactive |
| Ptp99A | 2 | 16 | inactive |
| Ptp99A | 3 | 8 | inactive |
| Ptp99A | 4 | 10 | inactive |
| Ptp99A | 5 | 8 | inactive |
| Ptp99A | 6 | 55 | inactive |
| Ptp99A | 7 | 7 | inactive |
| CG13055 | 1 | 6 | inactive |
| CG13055 | 2 | 2 | inactive |
| Son | 1 | 2 | inactive |
| su(w[a]) | 1 | 9 | inactive |
| su(w[a]) | 2 | 2 | inactive |
| Cpr78Ca | 1 | 5 | inactive |
| CG10348 | 1 | 8 | inactive |
| CG10348 | 2 | 10 | inactive |
| mus201 + Chrac-14 | 1 | 5 | inactive |
| mus201 + Chrac-14 | 2 | 3 | inactive |
| MICAL-like | 1 | 4 | inactive |
| CG15564 | 1 | 9 | inactive |
| Adgf-A2 | 1 | 22 | inactive |
| Hn | 1 | 10 | inactive |
| CG18563 | 1 | 5 | inactive |
| FBXO11 | 1 | 11 | inactive |
| NLaz | 1 | 14 | inactive |
| SNF4Agamma | 1 | 12 | inactive |
| SNF4Agamma | 2 | 12 | inactive |
| SNF4Agamma | 3 | 8 | inactive |
| SNF4Agamma | 4 | 53 | inactive |
| mRpL1 | 1 | 7 | inactive |
| CG18473 | 1 | 10 | inactive |
| lncRNA:iab4 | 1 | 8 | inactive |
| lncRNA:iab4 | 2 | 2 | inactive |
| Rnmt | 1 | 8 | inactive |
| CG11779 + CG5835 | 1 | 15 | inactive |
| CG11779 + CG5835 | 2 | 4 | inactive |
| CG12116 | 1 | 14 | inactive |
| robo2 | 1 | 2 | inactive |
| robo2 | 2 | 8 | inactive |
| robo2 | 3 | 5 | inactive |
| robo2 | 4 | 13 | inactive |
| Cyp4ad1 | 1 | 8 | inactive |
| CG4301 | 1 | 5 | inactive |
| CG15638 | 1 | 3 | inactive |
| CG32302 | 1 | 4 | inactive |
| TH1 | 1 | 6 | inactive |
| CG13078 | 1 | 5 | inactive |
| PGRP-SC1b | 1 | 5 | inactive |
| nord | 1 | 10 | inactive |
| nord | 2 | 3 | inactive |
| Prosbeta6 | 1 | 105 | inactive |
| gudu | 1 | 6 | inactive |
| mub | 1 | 6 | inactive |
| mub | 2 | 43 | inactive |
| del | 1 | 16 | inactive |
| sti | 1 | 3 | inactive |
| sti | 2 | 5 | inactive |
| Eph | 1 | 12 | inactive |
| CG16995 | 1 | 7 | inactive |
| Cph | 1 | 11 | inactive |
| Cph | 2 | 10 | inactive |
